According to paper PMC3859662:
These are yes or no findings as the source states them, for the method shown. For some of these results: Binding seen in cells or lysates may run through a third protein. Some binding calls cover weakened binding; strength is not graded here. Tags and fused reporters may be left off the sequences shown. Blank lines part the entries; values can stand above or below the binder they belong to.

Tests used:
[1] = target: T1, necdin (full-length, yeast two-hybrid fusion) (mouse) (UniProt P25233); assay: two-hybrid; vector switch: necdin as bait in pGBKT7, cystin as prey in pGADT7; growth on SD/-Ade-His-Leu-Trp with 0, 2.5, 5, 7.5, 10 and 15 mM 3-AT
T1 sequence: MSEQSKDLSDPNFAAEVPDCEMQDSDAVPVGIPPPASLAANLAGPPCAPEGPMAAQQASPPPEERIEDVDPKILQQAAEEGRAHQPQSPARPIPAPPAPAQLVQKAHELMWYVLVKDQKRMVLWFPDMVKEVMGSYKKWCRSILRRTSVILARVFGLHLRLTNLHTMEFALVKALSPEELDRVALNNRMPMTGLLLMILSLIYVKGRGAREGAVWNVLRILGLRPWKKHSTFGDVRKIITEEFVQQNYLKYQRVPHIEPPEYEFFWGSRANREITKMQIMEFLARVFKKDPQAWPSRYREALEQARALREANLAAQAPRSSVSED

[2] = target: T2, cystin (full-length mouse cystin, yeast two-hybrid fusion) (mouse) (UniProt Q8R4T1); assay: two-hybrid; GAL4 system (… System 3, Clontech); cystin as bait in pGBKT7, necdin as prey in pACT2; growth on SD/-Ade-His-Leu-Trp/X-gal
T2 sequence: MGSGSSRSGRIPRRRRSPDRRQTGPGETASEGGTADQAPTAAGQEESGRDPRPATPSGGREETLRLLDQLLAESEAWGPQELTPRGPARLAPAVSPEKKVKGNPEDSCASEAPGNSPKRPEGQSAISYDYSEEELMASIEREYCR

[3] = target: T3, HA-cystin (full-length cystin in pCMV-HA) (mouse) (UniProt Q8R4T1); assay: co-IP; pCMV-HA-cystin and pCMV-myc-necdin co-transfected into COS-7 cells; lysate precipitated with HA antibody and protein G agarose at 4 °C; washed with lysis buffer plus 0.2% NP40; blot with myc antibody
T3 sequence: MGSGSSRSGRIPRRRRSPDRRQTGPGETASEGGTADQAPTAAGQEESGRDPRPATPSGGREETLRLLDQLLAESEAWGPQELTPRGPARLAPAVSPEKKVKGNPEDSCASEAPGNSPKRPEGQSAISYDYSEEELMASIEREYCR

[4] = target: T4, GST-cystin (full-length cystin in pCMV-GST) (mouse) (UniProt Q8R4T1); assay: pull-down; pCMV-GST-cystin (or GST alone) and pCMV-myc-necdin co-transfected into COS-7 cells; lysate incubated with immobilized glutathione beads overnight at 4 °C; eluted with 100 mM glutathione; blot with myc antibody
T4 sequence: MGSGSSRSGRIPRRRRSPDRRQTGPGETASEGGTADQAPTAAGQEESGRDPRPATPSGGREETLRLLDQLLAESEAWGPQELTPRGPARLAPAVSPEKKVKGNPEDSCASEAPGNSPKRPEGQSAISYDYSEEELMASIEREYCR

binding [1]: binds
B1: cystin (full-length mouse cystin, yeast two-hybrid fusion) (protein, UniProt Q8R4T1 1-145)
chain: MGSGSSRSGRIPRRRRSPDRRQTGPGETASEGGTADQAPTAAGQEESGRDPRPATPSGGREETLRLLDQLLAESEAWGPQELTPRGPARLAPAVSPEKKVKGNPEDSCASEAPGNSPKRPEGQSAISYDYSEEELMASIEREYCR

binding [2]: binds
B2: necdin (full-length, yeast two-hybrid fusion) (protein, UniProt P25233 1-325)
chain: MSEQSKDLSDPNFAAEVPDCEMQDSDAVPVGIPPPASLAANLAGPPCAPEGPMAAQQASPPPEERIEDVDPKILQQAAEEGRAHQPQSPARPIPAPPAPAQLVQKAHELMWYVLVKDQKRMVLWFPDMVKEVMGSYKKWCRSILRRTSVILARVFGLHLRLTNLHTMEFALVKALSPEELDRVALNNRMPMTGLLLMILSLIYVKGRGAREGAVWNVLRILGLRPWKKHSTFGDVRKIITEEFVQQNYLKYQRVPHIEPPEYEFFWGSRANREITKMQIMEFLARVFKKDPQAWPSRYREALEQARALREANLAAQAPRSSVSED

binding [3]: binds | binding [4]: binds
B3: myc-necdin (full-length necdin in pCMV-myc) (protein, UniProt P25233 1-325)
chain: MSEQSKDLSDPNFAAEVPDCEMQDSDAVPVGIPPPASLAANLAGPPCAPEGPMAAQQASPPPEERIEDVDPKILQQAAEEGRAHQPQSPARPIPAPPAPAQLVQKAHELMWYVLVKDQKRMVLWFPDMVKEVMGSYKKWCRSILRRTSVILARVFGLHLRLTNLHTMEFALVKALSPEELDRVALNNRMPMTGLLLMILSLIYVKGRGAREGAVWNVLRILGLRPWKKHSTFGDVRKIITEEFVQQNYLKYQRVPHIEPPEYEFFWGSRANREITKMQIMEFLARVFKKDPQAWPSRYREALEQARALREANLAAQAPRSSVSED
